The list shows a part of the results.
Assays:
Experiment in all cases: log2 fold change, soluble protein after heating vs DMSO (PISA); higher = thermal stabilisation; K562 lysate, 10 uM; active = over 0.2 and 3.5 SD of the protein, either way, in both replicates (recomputed)
erlotinib = compound: C#Cc1cccc(Nc2ncnc3cc(OCCOC)c(OCCOC)cc23)c1 [erlotinib]
Method in brief: (§1)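 Thermal stability, expressed as log-two fold change relative to solvent controls, is given from duplicates. Crude K562 extract in PBS pH 7.4 with 1 mM MgCl2, at 1 mg/mL protein, was treated with 10 μM compound for 30 min and heated in aliquots for 3 min across 48°C-58°C. After pooling, adjustment to 0.5% NP-40 at 4°C and centrifugation at 21,000xg for 90 min, supernatant protein was measured by TMTpro 16plex LC-MS/MS with channel sums equalised.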

The chains behind the UniProt entries cited, without tags or fusion partners. Where a name states a change or a piece, a line headed by the entry shows the natural chain unless it says otherwise.
UniProt Q8N6H7: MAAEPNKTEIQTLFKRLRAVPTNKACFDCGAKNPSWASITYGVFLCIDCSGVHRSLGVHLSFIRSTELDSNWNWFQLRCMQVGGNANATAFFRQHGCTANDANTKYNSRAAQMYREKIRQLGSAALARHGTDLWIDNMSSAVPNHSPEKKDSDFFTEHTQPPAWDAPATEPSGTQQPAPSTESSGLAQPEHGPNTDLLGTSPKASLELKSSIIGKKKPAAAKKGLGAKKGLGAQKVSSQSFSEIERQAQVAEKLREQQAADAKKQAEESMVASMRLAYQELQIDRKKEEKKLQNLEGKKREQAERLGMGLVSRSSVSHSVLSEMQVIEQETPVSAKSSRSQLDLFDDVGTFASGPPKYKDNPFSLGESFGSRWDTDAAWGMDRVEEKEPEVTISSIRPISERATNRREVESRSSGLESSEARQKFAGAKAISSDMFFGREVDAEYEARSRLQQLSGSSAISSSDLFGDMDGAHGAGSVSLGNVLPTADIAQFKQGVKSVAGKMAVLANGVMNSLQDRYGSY
UniProt Q15052: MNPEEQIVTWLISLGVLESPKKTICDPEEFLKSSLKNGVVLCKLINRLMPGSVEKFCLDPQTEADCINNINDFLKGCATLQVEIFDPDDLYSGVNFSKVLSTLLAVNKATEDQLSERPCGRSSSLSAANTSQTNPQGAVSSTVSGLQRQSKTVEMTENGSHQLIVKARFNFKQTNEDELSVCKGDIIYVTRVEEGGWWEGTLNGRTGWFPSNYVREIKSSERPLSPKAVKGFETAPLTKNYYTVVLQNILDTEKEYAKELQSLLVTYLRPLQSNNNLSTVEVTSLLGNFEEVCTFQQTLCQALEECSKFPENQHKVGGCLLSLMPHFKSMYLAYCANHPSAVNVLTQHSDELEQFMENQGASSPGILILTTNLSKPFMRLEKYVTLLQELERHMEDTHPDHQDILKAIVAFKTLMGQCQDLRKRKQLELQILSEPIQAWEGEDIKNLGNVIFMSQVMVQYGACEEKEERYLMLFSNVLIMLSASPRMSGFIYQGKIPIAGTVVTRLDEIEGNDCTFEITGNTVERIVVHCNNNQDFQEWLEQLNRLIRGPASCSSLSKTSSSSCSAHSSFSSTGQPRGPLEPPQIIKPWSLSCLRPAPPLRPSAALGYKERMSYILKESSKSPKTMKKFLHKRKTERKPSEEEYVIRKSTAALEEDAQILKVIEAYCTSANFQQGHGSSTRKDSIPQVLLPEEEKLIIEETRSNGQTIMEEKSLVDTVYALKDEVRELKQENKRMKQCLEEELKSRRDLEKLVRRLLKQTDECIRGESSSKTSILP
UniProt O15013: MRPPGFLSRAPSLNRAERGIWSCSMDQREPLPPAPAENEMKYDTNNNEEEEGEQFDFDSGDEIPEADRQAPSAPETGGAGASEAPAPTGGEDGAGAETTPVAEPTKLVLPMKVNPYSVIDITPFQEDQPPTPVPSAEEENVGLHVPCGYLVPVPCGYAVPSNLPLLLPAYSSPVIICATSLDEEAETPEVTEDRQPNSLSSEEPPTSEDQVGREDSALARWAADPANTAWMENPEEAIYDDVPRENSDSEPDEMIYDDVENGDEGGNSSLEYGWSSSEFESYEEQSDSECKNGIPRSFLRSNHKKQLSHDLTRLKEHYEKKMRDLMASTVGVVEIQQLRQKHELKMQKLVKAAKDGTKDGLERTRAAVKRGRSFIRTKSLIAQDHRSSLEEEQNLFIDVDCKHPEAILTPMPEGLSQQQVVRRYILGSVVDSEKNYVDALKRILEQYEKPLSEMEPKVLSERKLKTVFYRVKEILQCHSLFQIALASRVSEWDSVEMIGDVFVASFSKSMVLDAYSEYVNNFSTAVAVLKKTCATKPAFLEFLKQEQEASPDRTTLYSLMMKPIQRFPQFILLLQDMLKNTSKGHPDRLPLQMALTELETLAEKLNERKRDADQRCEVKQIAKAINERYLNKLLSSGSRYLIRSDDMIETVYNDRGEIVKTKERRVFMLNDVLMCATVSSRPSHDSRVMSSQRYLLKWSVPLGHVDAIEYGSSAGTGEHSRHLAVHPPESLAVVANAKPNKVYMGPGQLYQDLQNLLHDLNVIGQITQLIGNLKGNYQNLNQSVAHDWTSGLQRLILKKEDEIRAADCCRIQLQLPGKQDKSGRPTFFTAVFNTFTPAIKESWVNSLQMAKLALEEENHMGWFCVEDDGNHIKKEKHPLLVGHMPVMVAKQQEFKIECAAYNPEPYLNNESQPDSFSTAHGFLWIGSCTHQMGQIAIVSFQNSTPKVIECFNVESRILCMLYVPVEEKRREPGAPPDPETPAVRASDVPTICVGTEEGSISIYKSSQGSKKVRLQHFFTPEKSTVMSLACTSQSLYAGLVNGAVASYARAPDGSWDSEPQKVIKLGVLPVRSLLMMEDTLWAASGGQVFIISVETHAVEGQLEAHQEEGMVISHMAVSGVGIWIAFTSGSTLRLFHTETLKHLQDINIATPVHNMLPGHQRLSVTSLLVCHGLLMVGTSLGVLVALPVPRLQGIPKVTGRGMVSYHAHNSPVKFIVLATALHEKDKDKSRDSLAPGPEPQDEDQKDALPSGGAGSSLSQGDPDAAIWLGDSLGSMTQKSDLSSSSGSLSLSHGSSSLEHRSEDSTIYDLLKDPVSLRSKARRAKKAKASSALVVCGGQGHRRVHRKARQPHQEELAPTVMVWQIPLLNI
UniProt Q9NWB6: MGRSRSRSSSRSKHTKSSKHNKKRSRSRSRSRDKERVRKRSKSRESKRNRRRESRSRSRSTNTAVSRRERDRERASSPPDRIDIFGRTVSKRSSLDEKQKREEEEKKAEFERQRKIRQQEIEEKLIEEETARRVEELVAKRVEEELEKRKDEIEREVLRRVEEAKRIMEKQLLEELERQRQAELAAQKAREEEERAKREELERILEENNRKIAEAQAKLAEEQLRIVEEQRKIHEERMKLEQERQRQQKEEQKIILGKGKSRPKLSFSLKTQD
UniProt Q9HC16: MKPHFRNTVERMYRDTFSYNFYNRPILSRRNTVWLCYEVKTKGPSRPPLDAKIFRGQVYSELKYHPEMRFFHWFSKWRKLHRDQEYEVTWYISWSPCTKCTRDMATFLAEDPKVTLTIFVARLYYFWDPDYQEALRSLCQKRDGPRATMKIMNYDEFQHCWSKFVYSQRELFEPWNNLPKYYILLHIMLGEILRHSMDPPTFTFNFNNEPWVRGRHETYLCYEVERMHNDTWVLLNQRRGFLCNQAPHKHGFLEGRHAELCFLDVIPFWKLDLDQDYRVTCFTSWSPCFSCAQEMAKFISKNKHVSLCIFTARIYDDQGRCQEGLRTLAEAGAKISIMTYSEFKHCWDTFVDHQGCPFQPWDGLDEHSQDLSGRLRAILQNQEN
UniProt P52566: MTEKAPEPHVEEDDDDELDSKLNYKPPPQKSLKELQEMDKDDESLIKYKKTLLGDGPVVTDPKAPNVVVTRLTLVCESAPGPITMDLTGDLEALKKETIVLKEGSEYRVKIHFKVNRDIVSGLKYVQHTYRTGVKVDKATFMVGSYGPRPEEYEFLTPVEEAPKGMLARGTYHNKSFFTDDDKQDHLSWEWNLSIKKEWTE
UniProt P62330: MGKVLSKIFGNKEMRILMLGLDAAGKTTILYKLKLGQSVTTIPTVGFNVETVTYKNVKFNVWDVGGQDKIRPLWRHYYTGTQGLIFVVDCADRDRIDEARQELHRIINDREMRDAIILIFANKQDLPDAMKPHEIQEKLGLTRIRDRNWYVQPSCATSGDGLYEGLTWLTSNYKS
UniProt Q9UKG1: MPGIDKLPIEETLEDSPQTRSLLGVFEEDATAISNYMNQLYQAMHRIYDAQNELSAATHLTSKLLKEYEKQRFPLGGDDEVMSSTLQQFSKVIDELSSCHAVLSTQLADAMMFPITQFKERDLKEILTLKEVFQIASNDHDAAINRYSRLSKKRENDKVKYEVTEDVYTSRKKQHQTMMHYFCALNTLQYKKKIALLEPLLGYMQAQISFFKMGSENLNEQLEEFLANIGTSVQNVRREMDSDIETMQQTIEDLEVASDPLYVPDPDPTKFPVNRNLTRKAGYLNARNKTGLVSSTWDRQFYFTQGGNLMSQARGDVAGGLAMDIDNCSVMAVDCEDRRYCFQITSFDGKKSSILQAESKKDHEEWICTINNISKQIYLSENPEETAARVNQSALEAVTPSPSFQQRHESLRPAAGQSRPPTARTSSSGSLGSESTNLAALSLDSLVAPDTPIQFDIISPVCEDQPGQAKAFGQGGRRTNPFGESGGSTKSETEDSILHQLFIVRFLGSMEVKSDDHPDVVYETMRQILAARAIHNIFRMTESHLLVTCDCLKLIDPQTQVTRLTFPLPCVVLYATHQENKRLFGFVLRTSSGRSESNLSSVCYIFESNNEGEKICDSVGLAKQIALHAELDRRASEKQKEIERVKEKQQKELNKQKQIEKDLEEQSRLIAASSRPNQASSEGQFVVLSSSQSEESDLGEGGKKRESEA
UniProt Q8NEU8: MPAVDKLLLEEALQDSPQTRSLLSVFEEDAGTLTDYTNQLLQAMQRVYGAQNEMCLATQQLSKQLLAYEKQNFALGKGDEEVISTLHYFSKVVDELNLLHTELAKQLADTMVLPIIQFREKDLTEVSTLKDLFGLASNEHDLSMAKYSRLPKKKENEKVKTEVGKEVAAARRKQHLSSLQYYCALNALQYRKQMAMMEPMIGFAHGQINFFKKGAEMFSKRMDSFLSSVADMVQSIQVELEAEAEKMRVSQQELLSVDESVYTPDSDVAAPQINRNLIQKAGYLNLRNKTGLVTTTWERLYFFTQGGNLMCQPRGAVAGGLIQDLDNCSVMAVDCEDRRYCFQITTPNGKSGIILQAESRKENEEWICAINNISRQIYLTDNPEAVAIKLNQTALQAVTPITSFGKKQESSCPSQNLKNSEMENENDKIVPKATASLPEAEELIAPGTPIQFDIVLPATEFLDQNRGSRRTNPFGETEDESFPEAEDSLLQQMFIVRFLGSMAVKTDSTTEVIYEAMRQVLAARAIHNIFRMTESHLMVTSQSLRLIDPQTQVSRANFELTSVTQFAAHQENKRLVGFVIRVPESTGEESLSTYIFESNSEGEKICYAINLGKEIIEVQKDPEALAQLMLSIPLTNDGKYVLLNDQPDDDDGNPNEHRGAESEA
UniProt O60306: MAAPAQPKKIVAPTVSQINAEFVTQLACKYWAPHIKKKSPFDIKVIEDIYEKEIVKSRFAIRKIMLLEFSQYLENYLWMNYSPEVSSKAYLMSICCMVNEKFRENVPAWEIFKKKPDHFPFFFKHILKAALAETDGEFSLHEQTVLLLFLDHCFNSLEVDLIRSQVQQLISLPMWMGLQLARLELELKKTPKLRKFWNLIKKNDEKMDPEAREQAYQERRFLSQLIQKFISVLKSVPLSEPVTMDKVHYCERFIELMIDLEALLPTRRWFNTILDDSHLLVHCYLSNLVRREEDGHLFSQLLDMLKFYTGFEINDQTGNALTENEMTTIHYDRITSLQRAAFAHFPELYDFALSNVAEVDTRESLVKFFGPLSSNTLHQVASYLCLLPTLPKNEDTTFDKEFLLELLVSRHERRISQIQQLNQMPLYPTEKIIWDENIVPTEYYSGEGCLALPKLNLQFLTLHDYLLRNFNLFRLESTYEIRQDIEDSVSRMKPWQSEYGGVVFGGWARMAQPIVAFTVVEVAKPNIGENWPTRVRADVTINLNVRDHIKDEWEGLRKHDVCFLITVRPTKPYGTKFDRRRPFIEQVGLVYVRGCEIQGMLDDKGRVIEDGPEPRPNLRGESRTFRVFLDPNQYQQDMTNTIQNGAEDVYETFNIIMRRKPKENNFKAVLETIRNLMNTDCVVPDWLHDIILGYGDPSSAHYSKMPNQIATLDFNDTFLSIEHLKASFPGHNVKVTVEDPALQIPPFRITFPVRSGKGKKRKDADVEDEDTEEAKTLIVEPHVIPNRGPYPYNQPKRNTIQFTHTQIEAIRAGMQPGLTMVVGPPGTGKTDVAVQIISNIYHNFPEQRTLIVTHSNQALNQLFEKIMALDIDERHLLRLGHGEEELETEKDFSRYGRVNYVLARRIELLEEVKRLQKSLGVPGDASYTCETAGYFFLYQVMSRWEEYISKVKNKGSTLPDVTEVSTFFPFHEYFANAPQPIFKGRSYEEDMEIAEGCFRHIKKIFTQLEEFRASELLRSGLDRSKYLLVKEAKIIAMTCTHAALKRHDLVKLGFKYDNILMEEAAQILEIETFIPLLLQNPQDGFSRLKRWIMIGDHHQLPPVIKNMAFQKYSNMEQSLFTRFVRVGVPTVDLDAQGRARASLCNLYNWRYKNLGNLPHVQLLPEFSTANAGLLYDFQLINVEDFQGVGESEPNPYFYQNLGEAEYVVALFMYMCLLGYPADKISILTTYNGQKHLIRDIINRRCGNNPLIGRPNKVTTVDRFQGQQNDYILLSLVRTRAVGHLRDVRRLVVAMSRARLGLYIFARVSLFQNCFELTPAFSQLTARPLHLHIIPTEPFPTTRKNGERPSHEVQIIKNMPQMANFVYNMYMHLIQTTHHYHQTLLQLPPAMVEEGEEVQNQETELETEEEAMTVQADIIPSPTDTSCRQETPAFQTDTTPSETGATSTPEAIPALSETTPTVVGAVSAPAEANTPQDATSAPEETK

[1] = compound: C/C(=N\NC(=O)C1=CC(=CC=C1)S(=O)(=O)N2CCOCC2)/C3=C(C=CC(=C3)Cl)O
Method in brief: as §1

[2] = compound: C1=CC(=CC=C1C2=NC3=C(N2)C=C(C=C3)C(=O)N)OC4=CC=C(C=C4)Cl
Method in brief: as §1

[3] = compound: C1=CC2=C(C=CC(=C2)/C=C\3/C(=O)NC(=NCC4=CC=CS4)S3)N=C1
Method in brief: as §1

[4] = compound: C1=CC2=NC=CN=C2C=C1/C=C/3\C(=O)NC(=O)S3
Method in brief: as §1

[5] = compound: C1=CC=C(C=C1)C2=NC(=C(N2)C3=CC=NC=C3)C4=CC(=C(C=C4)Cl)O
Method in brief: as §1

[6] = compound: C1=CC=C2C(=C1)C3=NNC4=CC=CC(=C43)C2=O
Method in brief: as §1

[7] = compound: C1CCN(C1)C(=O)NC2=CC=CC(=C2)NC3=NC=C(C(=N3)NCCC4=CN=CN4)Br
Method in brief: as §1

[8] = compound: C1CN(CCC1(CC2=CC=C(C=C2)Cl)N)C3=NC=NC4=C3C=CN4
Method in brief: as §1

IRAK-1-4 Inhibitor I = compound: C1COCCN1CCN2C3=CC=CC=C3N=C2NC(=O)C4=CC(=CC=C4)[N+](=O)[O-] [IRAK-1-4 Inhibitor I]
Method in brief: as §1

Measured: log2 fold change

ARMC8 (UniProt Q8IUR7)
inactive: erlotinib -0.03 | [1] 0 | [2] 0.008 | [3] 0.023 | [4] -0.002 | [5] 0.022 | [6] 0.015 | [7] -0.046 | [8] -0.023 | IRAK-1-4 Inhibitor I -0.032

ARFGAP2 (UniProt Q8N6H7)
inactive: erlotinib -0.05 | [1] -0.004 | [2] -0.014 | [3] -0.003 | [4] 0.014 | [5] -0.004 | [6] 0.053 | [7] -0.003 | [8] -0.023 | IRAK-1-4 Inhibitor I -0.03

ARHGEF6 (UniProt Q15052)
inactive: erlotinib -0.016 | [1] 0.012 | [2] -0.056 | [3] 0.005 | [4] -0.095 | [5] 0.02 | [6] 0.016 | [7] -0.029 | [8] -0.016 | IRAK-1-4 Inhibitor I -0.004

ARRB1 isoform 2 (UniProt P49407)
inactive: erlotinib 0.013 | [1] -0.027 | [2] 0.085 | [3] -0.105 | [4] 0.089 | [5] -0.035 | [6] 0.078 | [7] 0.113 | [8] -0.044 | IRAK-1-4 Inhibitor I 0.021

ARHGEF10 (UniProt O15013)
inactive: erlotinib 0.107 | [1] -0.308 | [2] 0.111 | [3] 0.102 | [4] -0.098 | [5] 0 | [6] 0.019 | [7] 0.022 | [8] -0.087 | IRAK-1-4 Inhibitor I 0.077

ARHGAP25 isoform 4 (UniProt P42331)
inactive: erlotinib 0.029 | [1] 0.045 | [2] 0.026 | [3] -0.031 | [4] -0.031 | [5] -0.002 | [6] -0.029 | [7] 0.007 | [8] 0.034 | IRAK-1-4 Inhibitor I -0.006

ARHGAP19 isoform 2 (UniProt Q14CB8)
inactive: erlotinib 0.027 | [1] -0.061 | [2] 0.012 | [3] -0.158 | [4] 0.14 | [5] 0.043 | [6] 0.034 | [7] -0.04 | [8] -0.069 | IRAK-1-4 Inhibitor I -0.021

ARGLU1 (UniProt Q9NWB6)
inactive: erlotinib -0.008 | [1] 0.069 | [2] -0.039 | [3] 0.009 | [4] -0.034 | [5] -0.057 | [6] -0.002 | [7] 0.003 | [8] -0.047 | IRAK-1-4 Inhibitor I 0.025

ARPC5 (UniProt O15511)
inactive: erlotinib -0.016 | [1] 0.024 | [2] -0.049 | [3] -0.049 | [4] 0.002 | [5] 0.021 | [6] -0.006 | [7] -0.01 | [8] -0.011 | IRAK-1-4 Inhibitor I 0.032

ARL8A (UniProt Q96BM9)
inactive: erlotinib -0.223 | [1] -0.039 | [2] 0.176 | [3] 0.157 | [4] 0.036 | [5] 0 | [6] -0.041 | [7] 0.026 | [8] 0.028 | IRAK-1-4 Inhibitor I 0.091

APTX (UniProt Q7Z2E3)
inactive: erlotinib 0.026 | [1] 0.143 | [2] 0.003 | [3] 0.065 | [4] -0.014 | [5] 0.053 | [6] -0.177 | [7] 0.052 | [8] 0.102 | IRAK-1-4 Inhibitor I 0.035

ARPC2 (UniProt O15144)
inactive: erlotinib -0.005 | [1] -0.028 | [2] 0.015 | [3] 0 | [4] 0.005 | [5] -0.004 | [6] 0.015 | [7] 0.006 | [8] -0.006 | IRAK-1-4 Inhibitor I 0.001

APOOL (UniProt Q6UXV4)
inactive: erlotinib -0.021 | [1] 0.014 | [2] 0.017 | [3] -0.006 | [4] -0.022 | [5] -0.023 | [6] -0.028 | [7] -0.025 | [8] 0.007 | IRAK-1-4 Inhibitor I 0.016

APOB (UniProt P04114)
inactive: erlotinib -0.028 | [1] -0.001 | [2] -0.032 | [3] -0.029 | [4] -0.021 | [5] 0 | [6] -0.055 | [7] -0.067 | [8] 0.015 | IRAK-1-4 Inhibitor I 0.097

ARFGEF2 (UniProt Q9Y6D5)
inactive: erlotinib 0.039 | [1] -0.035 | [2] -0.041 | [3] -0.023 | [4] 0.007 | [5] -0.036 | [6] -0.044 | [7] 0.016 | [8] 0.031 | IRAK-1-4 Inhibitor I -0.001

Quoted at random: 2 records from the list.
APTX (UniProt Q7Z2E3)
inactive: erlotinib 0.026 | [1] 0.143 | [2] 0.003 | [3] 0.065 | [4] -0.014 | [5] 0.053 | [6] -0.177 | [7] 0.052 | [8] 0.102 | IRAK-1-4 Inhibitor I 0.035

ARPC2 (UniProt O15144)
inactive: erlotinib -0.005 | [1] -0.028 | [2] 0.015 | [3] 0 | [4] 0.005 | [5] -0.004 | [6] 0.015 | [7] 0.006 | [8] -0.006 | IRAK-1-4 Inhibitor I 0.001

Remaining list, next part.

ARL3 (UniProt P36405)
inactive: erlotinib -0.005 | [1] -0.032 | [2] 0.014 | [3] -0.013 | [4] 0.003 | [5] 0.017 | [6] 0.038 | [7] 0.017 | [8] 0.031 | IRAK-1-4 Inhibitor I 0.016

APLP2 (UniProt Q06481)
inactive: erlotinib -0.011 | [1] -0.045 | [2] 0.039 | [3] 0.007 | [4] -0.052 | [5] -0.045 | [6] -0.006 | [7] 0 | [8] 0.054 | IRAK-1-4 Inhibitor I 0.038

APOBEC3G (UniProt Q9HC16)
inactive: erlotinib 0.026 | [1] 0.054 | [2] 0.014 | [3] -0.043 | [4] 0.152 | [5] 0.054 | [6] 0.024 | [7] 0.064 | [8] -0.006 | IRAK-1-4 Inhibitor I -0.039

ARID1A (UniProt O14497)
inactive: erlotinib 0.036 | [1] 0.036 | [2] 0.008 | [3] -0.015 | [4] -0.031 | [5] 0.006 | [6] -0.027 | [7] -0.019 | [8] -0.001 | IRAK-1-4 Inhibitor I -0.026

ARHGDIB (UniProt P52566)
inactive: erlotinib -0.032 | [1] 0.014 | [2] 0.007 | [3] -0.007 | [4] -0.022 | [5] 0.011 | [6] -0.014 | [7] 0.03 | [8] -0.018 | IRAK-1-4 Inhibitor I 0.013

ARHGAP6 (UniProt O43182)
inactive: erlotinib 0.013 | [1] -0.145 | [2] -0.04 | [3] 0.061 | [4] 0.07 | [5] 0.041 | [6] -0.005 | [7] -0.016 | [8] 0.037 | IRAK-1-4 Inhibitor I 0.015

ARF6 (UniProt P62330)
inactive: erlotinib 0.038 | [1] -0.009 | [2] -0.003 | [3] 0.005 | [4] -0.001 | [5] 0.042 | [6] -0.007 | [7] -0.045 | [8] -0.029 | IRAK-1-4 Inhibitor I 0.044

APPL1 (UniProt Q9UKG1)
inactive: erlotinib 0.035 | [1] 0.056 | [2] -0.013 | [3] -0.007 | [4] -0.015 | [5] 0.001 | [6] -0.023 | [7] -0.025 | [8] 0.018 | IRAK-1-4 Inhibitor I -0.003

APPL2 isoform 3 (UniProt Q8NEU8)
inactive: erlotinib 0.034 | [1] 0.08 | [2] -0.055 | [3] -0.076 | [4] -0.018 | [5] 0.105 | [6] -0.018 | [7] 0.002 | [8] -0.049 | IRAK-1-4 Inhibitor I 0.145

ARRB1 (UniProt P49407)
inactive: erlotinib 0.004 | [1] -0.012 | [2] 0.007 | [3] -0.039 | [4] -0.046 | [5] 0.025 | [6] 0.014 | [7] 0.016 | [8] -0.013 | IRAK-1-4 Inhibitor I 0.026

APBA3 (UniProt O96018)
inactive: erlotinib -0.006 | [1] -0.115 | [2] -0.022 | [3] -0.098 | [5] -0.065 | [6] -0.214 | [7] 0.007 | [8] -0.308 | IRAK-1-4 Inhibitor I 0.075

ARID3A (UniProt Q99856)
inactive: erlotinib 0.006 | [1] -0.019 | [2] 0.019 | [3] 0.066 | [4] -0.037 | [5] -0.009 | [6] -0.015 | [7] -0.03 | [8] -0.004 | IRAK-1-4 Inhibitor I -0.008

API5 isoform 2 (UniProt Q9BZZ5)
inactive: erlotinib -0.118 | [1] 0.033 | [2] 0.021 | [3] -0.097 | [4] 0.005 | [5] 0.019 | [6] 0.074 | [7] -0.065 | [8] 0.034 | IRAK-1-4 Inhibitor I 0.001

ARFGAP1 (UniProt Q8N6T3)
inactive: erlotinib -0.028 | [1] -0.209 | [2] -0.025 | [3] 0.005 | [4] 0.029 | [5] -0.039 | [6] -0.025 | [7] -0.018 | [8] 0.002 | IRAK-1-4 Inhibitor I 0.038

AQR (UniProt O60306)
inactive: erlotinib 0.024 | [1] -0.023 | [2] -0.029 | [3] 0.03 | [4] 0.078 | [5] 0.003 | [6] -0.026 | [7] -0.009 | [8] -0.015 | IRAK-1-4 Inhibitor I 0

Source: the supplement of paper PMC10849652
